Patent publication US20090068207A1, “Compositions Containing Beta 2-Glycoprotein I-Derived Peptides for the Prevention and/or Treatment of Vascular Disease” (Vascular Biogenics Ltd., priority 2005, published 2009)
Some results were stated once for a whole list of compounds, not compound by compound.

Tested on: LDL-RD mice
Assay: Aortic sinus lesion area after nasal tolerance induction, Western diet
Assay type: in vivo
Conditions: 10 μg/mouse, brief exposure (3 days), LDL receptor-deficient mice

## HSP-65: recombinant mycobacterial heat shock protein HSP 65
  protection from atherogenesis: greater than 65%
